Patent US20240216900A1, “SABRE CATALYSTS CONTAINING FLUORINATED CARBON CHAINS FOR DELIVERY OF METAL-FREE MRI CONTRAST AGENTS” (The U.S.A., as represented by the Secretary, Department of …, priority 2022, published 2024)

Key:
[1] = for pyruvate hyperpolarization, initial level: CD3OD/Novec 7100, before purification
[2] = 13C polarization of [1-13C]pyruvate after isolation from the catalyst into aqueous medium (precipitation, filtration, evaporation, biphasic extraction); details: for pyruvate hyperpolarization after D2O addition, solvent evaporation and filtration: whole procedure about 2 minutes; for Signal enhancement ε in the water phase: 300 μL D2O biphasic extraction from CD3OD/Novec 7100; for P13C in the water phase: after biphasic extraction
[3] = Recycling and re-use of the perfluorinated SABRE catalyst for repeated [1-13C]pyruvate hyperpolarization
[4] = Example 5, FIG. 6 legend: 30 mM sodium [1-13C]pyruvate, 42 mM PTFSO, 7.8 mM Ir-F-IMes, deuterated methanol, 55 s 50% p-H2, BT=-0.7 μT, 1.88 T
[5] = Example 9, FIG. 15: after EtOAc precipitation and reconstitution in water (D2O), 7.5 mM fluorinated catalyst, 50 mM DMSO
[6] = Example 26, FIG. 24: aqueous phase after adding 400 μL D2O to NFBME/MeOD mixture (emulsion formed)

SMILES: CC(=O)C(=O)O [[1-^13C]pyruvate, sodium [1-^13C]pyruvate]
- Enhancement ε [1, 4]: ~1250
- polarization P(13C) [1, 4]: ~0.1%
- polarization P(13C) ([1]; Example 5 text: 8 mM fluorinated catalyst (Example 4), 16 mM PTFSO, 30 mM [1-13C]pyruvate, 0.6 mL CD3OD, room temperature, 50% p-H2): ~1%
- pyruvate hyperpolarization, initial level ([1]; Example 33: DMSO co-ligand): 13.6%
- pyruvate hyperpolarization, initial level ([1]; Example 34: PTMSO co-ligand): 8.3%
- HP 13C signal after catalyst precipitation with D2O and filtration ([2]; Example 8: Example 4 catalyst, DMSO, CD3OD, 20% D2O, Oasis HLB filter, procedure 1.15-1.30 min, 1.8 T): no HP ^13C signal was observed
- P13C [2, 5]: ~2.17%
- signal enhancement ε [2, 5]: ~9000 fold
- P13C [2, 6]: ~1.68%
- signal enhancement ε [2, 6]: ~10800 fold
- pyruvate hyperpolarization after D2O addition, solvent evaporation and filtration ([2]; Example 33, FIG. 41: DMSO co-ligand, 5 s vacuum at 80 °C): 2.57%
- pyruvate hyperpolarization after D2O addition ([2]; Example 33: 200 μL D2O added, emulsion): 5.9%
- pyruvate hyperpolarization after filtration of the emulsion ([2]; Example 33: Oasis HLB filter, whole procedure about 1.30 minutes): 0.34%
- pyruvate hyperpolarization after D2O addition, solvent evaporation and filtration ([2]; Example 34, FIG. 42: PTMSO co-ligand): 0.2%
- Signal enhancement ε in the water phase ([2]; Example 35, FIG. 44A: DMSO co-ligand): ~39300 fold
- Signal enhancement ε in the water phase ([2]; Example 35, FIG. 44B: PTMSO co-ligand): ~25700 fold
- P13C in the water phase ([2]; Example 35: DMSO co-ligand): ~6.13%
- P13C in the water phase ([2]; Example 35: PTMSO co-ligand): ~4%
- signal enhancement ε ([3]; Example 26, FIG. 25: catalyst in fluorous mixture re-used 4 days later, 23 mM pyruvate, 47 mM DMSO): ~3090 fold
- diminution in [1-13C]pyruvate hyperpolarization in methanol ([3]; Example 36: by the third recycle): 39%
- signal enhancement ε after catalyst recycling ([3]; Example 36: second round of polarization with recycled catalyst): ~3090 fold
- [1-13C]pyruvate polarization lost ([3]; Example 36: sixth cycle): 60.8%

Like-named read-outs stand apart in the source and are kept apart here.
